Measured values from patent US20090004198A1 (published 2009).
These are yes or no findings as the source states them, for the method shown. Some entries that bind do so weakly or less than the wild type.

Amino acid sequences for entries named in this document (tags omitted). Residues count along the entry.
HCMV glycoprotein B (gB) / HCMV-AD1 from HCMV (AD169 strain) (human cytomegalovirus (HCMV), AD169 strain) (P06473, residues 460-906): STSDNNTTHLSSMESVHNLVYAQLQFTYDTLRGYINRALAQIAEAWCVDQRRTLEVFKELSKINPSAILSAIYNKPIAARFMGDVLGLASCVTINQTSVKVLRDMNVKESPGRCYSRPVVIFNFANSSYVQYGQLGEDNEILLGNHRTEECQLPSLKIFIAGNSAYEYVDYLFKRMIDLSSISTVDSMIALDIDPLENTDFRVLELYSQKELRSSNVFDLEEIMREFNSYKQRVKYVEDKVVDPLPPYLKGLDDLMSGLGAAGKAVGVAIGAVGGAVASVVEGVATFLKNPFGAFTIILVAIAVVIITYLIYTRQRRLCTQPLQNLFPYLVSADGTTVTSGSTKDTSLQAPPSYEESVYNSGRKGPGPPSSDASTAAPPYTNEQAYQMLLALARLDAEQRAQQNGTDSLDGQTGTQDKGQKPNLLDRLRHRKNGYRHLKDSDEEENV
GST-HCMV-AD1 fusion protein (human cytomegalovirus (HCMV)) (P06473, residues 552-635): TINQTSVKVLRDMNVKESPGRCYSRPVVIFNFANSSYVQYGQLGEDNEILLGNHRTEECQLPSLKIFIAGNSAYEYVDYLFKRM

Columns and labels:
[1] = molecular target: HCMV glycoprotein B (gB) / HCMV-AD1 from HCMV (AD169 strain) (human cytomegalovirus (HCMV), AD169 strain) (UniProt P06473); experiment: Western blot
[2] = molecular target: HCMV glycoprotein B (gB) / HCMV-AD1 from HCMV (AD169 strain) (human cytomegalovirus (HCMV), AD169 strain) (UniProt P06473); experiment: Western blot on lysate of HCMV AD169-infected HEL cells
[3] = molecular target: GST-HCMV-AD1 fusion protein (human cytomegalovirus (HCMV)) (UniProt P06473); experiment: ELISA after Protein A purification (plate antigen taken to be GST fused HCMV-AD1 as in the screening)
[4] = molecular target: GST-HCMV-AD1 fusion protein (human cytomegalovirus (HCMV)) (UniProt P06473); experiment: ELISA of culture supernatants of 293T cells transfected with the H and L chain cDNAs (plate antigen taken to be GST fused HCMV-AD1 as in the screening)

Measured: binding

B1: anti-HCMV antibody (G3D No. 9) (antibody, human IgG1, kappa, V domains shown)
VH: QVQLVESGGGMVQPGKSLRLSCAASGFTFSSYGMHWVRQAPGRGLEWVAIIWYDGDNTWYADSVKGRITISRDNSKNMLYLQMDSLRVEDTALYYCVRGGLGYFNGWDVDHWGQGTLVTVSS
VL: DVVMTQSPLSLPVTLGQPASISCRSSESLVYSDGNTYLNWFQQRPGQSPRRLISKVSNRDSGVPDRFSGSGSGTDFTLKISRVEAEDVGVYYCMQGSHWPPYTFGQGTKLEIKR
notes: also called G3D No. 9 antibody; anti-HCMV monoclonal antibody
binds: all assays above
